Results as given in US20250298041A1.
Results are given in words; binding and its absence hold for the method and conditions named. A result given as binding can be weak or reduced; the word gives no strength.

Legend:
[1] = molecular target: recombinant AIM-A1 protein (human VWF residues 1238-1493) (human); test: biolayer interferometry
[2] = molecular target: recombinant AIM-A1 protein (human VWF residues 1238-1493) (human); test: biolayer interferometry on AIM-A1 protein, series 4, 8, 16, 32, 63, 125, 250 nM
[3] = molecular target: recombinant AIM-A1 protein (human VWF residues 1238-1493) (human); test: biolayer interferometry (FIG. 3)

Measured: binding

B1: R6Nd4 (VHH)
VHH: QVQLVESGGGLVQAGGSLRLSCAASGSRFSSRPMAWFRQTPGKEHDFVAYINWSGGSKYYADSVKGRFTISRDNAKNTVYLQMDSLKPEDTSIYYCAAGRAYSAVAVTPRGYDFWGQGTQVTVSS
binds: [1] | [2] | [3]

B2: R6Nd6 (VHH)
VHH: QVQLVESGGGLVQAGGSLRLSCATSGIIFSVYHMGWFRQTPGKERELVALISLSGSSTDYADSVKGRFAISRDNAKDTVFLQMNTLKPEDTAVYYCAARLGSSWKYWGQGTQVTVSS
binds: [1] | [2] | [3]
